Some of the results follow. Residues, ends and D or L forms follow the SMILES beside them. *: point of attachment. Cbz = O=C(OCc1ccccc1)*
What was measured:
Test in all cases: log2 fold change, soluble protein after heating vs DMSO (PISA); higher = thermal stabilisation; K562 cells, 10 uM, 30 min; active = over 0.2 and 3.5 SD of the protein, either way, in both replicates (recomputed)
erlotinib = compound: C#Cc1cccc(Nc2ncnc3cc(OCCOC)c(OCCOC)cc23)c1 [erlotinib]
Summary of the method: (§1)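 K562 cells at 2×10^6 cells/mL were given 10 μM compound for 30 min. Aliquots then went through 3 min of heating across 48°C-58°C, were pooled, and were extracted in PBS with 0.5% NP-40 at 4°C, and the supernatant after 21,000xg for 90 min was quantified by TMTpro 16plex LC-MS/MS with channel sums equalised. Thermal stability relative to control samples, from duplicates, is given as log2 fold change.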

Amino acid sequences for entries named in this document (tags omitted). A change or cut given only in a name is not applied to a line headed by its entry.
UniProt P07225: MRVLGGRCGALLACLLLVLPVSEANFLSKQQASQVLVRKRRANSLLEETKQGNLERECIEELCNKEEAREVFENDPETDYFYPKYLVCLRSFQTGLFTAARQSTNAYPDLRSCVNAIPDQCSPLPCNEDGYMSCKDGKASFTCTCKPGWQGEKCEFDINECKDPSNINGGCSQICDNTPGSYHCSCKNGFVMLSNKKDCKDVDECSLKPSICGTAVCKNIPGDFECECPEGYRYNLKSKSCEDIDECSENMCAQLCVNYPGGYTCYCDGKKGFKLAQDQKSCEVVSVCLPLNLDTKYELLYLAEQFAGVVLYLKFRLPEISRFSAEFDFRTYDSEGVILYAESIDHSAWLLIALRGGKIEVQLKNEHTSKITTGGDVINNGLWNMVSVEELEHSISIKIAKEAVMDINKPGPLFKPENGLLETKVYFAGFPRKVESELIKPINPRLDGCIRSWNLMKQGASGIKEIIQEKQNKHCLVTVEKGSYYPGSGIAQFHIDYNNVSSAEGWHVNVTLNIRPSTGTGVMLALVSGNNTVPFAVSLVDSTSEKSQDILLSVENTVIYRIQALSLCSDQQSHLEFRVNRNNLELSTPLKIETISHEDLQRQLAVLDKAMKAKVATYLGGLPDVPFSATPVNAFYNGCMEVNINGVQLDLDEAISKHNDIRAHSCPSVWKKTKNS
UniProt P63151: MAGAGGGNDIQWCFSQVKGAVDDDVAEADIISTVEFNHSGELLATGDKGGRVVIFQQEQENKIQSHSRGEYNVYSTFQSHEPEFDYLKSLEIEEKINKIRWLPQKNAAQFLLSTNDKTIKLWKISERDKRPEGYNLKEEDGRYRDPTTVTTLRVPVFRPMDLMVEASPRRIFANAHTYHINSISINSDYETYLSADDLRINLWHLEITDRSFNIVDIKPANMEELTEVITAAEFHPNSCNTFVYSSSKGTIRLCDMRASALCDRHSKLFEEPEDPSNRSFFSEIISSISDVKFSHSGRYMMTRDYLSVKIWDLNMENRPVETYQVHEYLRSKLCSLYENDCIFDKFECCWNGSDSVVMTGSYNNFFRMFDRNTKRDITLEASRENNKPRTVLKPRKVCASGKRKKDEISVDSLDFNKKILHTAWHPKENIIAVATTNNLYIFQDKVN
UniProt P14314: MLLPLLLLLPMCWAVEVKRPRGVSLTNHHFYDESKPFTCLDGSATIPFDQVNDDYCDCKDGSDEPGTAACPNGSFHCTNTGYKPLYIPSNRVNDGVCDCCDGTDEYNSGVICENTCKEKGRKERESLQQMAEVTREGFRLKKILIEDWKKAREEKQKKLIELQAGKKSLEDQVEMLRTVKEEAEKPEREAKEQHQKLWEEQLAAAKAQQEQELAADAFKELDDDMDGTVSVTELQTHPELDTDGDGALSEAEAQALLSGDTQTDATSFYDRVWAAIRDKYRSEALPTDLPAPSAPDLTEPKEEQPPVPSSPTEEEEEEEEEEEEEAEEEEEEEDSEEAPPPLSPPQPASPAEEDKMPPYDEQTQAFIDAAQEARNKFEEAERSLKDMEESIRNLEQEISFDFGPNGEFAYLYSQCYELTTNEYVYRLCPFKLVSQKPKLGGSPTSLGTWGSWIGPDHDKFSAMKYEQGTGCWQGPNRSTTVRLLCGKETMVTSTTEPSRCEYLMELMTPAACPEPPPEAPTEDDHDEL
UniProt Q14558: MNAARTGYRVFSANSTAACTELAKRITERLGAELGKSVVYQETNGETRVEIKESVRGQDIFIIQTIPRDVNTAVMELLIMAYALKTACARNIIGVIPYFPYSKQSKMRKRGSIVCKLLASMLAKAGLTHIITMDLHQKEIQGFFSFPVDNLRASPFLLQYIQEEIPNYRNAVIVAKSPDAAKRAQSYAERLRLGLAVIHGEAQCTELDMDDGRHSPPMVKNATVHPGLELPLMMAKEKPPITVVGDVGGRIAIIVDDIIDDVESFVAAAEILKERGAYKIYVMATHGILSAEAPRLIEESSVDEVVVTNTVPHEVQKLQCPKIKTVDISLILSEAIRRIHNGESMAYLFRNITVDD
UniProt P60510: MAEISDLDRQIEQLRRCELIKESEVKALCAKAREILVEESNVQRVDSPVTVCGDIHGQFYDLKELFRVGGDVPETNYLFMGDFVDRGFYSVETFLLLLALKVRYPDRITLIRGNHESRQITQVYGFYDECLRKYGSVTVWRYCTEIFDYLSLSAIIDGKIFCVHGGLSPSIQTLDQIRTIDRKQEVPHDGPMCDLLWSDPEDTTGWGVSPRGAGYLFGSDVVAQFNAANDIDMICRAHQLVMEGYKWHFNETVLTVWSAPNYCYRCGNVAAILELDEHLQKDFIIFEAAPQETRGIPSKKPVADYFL
UniProt P36873, whole entry, looked up: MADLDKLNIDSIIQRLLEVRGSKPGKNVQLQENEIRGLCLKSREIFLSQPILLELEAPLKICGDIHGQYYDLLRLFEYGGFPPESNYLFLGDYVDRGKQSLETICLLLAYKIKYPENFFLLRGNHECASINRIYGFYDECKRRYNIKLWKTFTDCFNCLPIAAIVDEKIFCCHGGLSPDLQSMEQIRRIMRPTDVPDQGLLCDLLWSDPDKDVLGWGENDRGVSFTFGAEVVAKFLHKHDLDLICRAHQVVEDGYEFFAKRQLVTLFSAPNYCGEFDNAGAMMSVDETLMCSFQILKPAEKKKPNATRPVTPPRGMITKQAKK
UniProt O60927: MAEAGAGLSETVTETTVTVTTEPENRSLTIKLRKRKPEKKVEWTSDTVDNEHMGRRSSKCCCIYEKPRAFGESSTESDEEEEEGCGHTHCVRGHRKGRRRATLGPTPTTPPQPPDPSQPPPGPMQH
UniProt O43172: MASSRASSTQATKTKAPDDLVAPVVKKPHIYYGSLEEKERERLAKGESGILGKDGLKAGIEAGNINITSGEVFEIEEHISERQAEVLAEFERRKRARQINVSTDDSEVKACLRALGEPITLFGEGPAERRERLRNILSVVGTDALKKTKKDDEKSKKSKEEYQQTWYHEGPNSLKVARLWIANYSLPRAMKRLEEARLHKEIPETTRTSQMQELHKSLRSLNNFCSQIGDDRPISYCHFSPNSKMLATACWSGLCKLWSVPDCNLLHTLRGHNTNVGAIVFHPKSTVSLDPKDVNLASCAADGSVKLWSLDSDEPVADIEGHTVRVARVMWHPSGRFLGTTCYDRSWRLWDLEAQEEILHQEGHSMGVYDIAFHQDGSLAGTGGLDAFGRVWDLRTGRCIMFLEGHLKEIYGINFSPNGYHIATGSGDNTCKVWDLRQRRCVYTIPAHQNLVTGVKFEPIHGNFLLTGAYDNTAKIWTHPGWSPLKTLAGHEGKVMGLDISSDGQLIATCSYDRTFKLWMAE
UniProt Q8TF05: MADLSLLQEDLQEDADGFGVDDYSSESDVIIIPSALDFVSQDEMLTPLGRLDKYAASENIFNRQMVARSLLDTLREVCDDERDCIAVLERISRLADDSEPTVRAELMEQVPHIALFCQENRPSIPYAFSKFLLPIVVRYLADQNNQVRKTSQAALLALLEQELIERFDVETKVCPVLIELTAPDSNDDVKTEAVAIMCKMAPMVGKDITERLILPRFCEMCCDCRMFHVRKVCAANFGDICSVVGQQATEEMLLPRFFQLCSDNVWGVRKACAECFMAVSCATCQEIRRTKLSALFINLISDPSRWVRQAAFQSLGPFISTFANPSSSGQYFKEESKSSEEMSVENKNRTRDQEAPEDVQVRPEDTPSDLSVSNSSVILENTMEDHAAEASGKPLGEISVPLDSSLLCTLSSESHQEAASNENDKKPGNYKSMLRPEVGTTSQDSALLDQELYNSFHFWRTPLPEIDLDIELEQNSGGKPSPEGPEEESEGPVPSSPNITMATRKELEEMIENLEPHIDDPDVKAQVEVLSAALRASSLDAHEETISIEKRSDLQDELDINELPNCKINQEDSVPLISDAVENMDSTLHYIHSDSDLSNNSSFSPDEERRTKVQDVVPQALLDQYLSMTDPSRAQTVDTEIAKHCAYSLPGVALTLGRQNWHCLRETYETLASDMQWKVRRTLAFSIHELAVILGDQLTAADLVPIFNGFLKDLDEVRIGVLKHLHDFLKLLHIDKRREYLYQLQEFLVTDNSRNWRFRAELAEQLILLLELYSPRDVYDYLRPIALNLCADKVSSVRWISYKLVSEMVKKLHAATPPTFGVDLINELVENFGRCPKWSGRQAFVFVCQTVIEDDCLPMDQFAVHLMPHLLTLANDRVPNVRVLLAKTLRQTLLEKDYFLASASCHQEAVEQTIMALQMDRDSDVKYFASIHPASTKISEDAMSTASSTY
UniProt Q96LA8, whole entry, looked up: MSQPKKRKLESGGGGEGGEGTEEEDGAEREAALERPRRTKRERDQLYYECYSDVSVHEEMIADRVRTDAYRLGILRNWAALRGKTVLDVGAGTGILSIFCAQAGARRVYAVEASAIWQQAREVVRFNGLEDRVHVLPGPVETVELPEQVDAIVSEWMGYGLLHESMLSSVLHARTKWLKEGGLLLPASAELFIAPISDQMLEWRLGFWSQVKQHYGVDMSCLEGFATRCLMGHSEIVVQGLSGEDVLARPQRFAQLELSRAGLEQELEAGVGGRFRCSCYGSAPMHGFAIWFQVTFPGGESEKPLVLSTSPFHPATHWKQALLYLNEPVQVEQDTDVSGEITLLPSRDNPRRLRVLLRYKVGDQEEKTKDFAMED
UniProt Q92733: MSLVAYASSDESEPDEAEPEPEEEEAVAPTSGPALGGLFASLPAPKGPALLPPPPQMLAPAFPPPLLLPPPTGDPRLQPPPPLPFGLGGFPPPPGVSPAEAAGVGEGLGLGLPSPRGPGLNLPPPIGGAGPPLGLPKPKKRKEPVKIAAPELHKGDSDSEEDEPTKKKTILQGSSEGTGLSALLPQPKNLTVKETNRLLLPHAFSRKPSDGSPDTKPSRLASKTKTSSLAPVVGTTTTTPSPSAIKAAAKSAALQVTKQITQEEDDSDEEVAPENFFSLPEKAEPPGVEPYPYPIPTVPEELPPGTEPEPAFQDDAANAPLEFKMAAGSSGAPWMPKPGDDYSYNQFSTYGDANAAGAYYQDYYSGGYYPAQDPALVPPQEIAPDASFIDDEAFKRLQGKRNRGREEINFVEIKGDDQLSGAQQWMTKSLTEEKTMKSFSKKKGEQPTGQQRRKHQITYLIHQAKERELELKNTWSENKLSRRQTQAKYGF
UniProt Q96BP3: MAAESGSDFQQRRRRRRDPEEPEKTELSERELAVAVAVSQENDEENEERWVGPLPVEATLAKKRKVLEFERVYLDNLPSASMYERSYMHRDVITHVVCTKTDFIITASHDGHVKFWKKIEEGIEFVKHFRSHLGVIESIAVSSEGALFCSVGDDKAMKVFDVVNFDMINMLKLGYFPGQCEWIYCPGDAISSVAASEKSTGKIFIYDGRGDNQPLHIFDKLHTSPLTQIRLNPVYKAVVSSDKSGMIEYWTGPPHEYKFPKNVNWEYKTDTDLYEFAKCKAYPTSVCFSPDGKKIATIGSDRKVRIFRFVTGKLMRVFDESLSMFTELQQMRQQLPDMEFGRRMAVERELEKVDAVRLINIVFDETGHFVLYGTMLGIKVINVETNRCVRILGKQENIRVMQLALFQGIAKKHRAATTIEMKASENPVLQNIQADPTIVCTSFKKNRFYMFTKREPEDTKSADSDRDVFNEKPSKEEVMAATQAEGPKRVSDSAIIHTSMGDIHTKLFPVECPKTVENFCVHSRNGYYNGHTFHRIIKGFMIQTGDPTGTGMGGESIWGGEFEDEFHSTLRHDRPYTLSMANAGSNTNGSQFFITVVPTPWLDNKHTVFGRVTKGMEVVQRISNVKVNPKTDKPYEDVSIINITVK
UniProt Q9UGJ0: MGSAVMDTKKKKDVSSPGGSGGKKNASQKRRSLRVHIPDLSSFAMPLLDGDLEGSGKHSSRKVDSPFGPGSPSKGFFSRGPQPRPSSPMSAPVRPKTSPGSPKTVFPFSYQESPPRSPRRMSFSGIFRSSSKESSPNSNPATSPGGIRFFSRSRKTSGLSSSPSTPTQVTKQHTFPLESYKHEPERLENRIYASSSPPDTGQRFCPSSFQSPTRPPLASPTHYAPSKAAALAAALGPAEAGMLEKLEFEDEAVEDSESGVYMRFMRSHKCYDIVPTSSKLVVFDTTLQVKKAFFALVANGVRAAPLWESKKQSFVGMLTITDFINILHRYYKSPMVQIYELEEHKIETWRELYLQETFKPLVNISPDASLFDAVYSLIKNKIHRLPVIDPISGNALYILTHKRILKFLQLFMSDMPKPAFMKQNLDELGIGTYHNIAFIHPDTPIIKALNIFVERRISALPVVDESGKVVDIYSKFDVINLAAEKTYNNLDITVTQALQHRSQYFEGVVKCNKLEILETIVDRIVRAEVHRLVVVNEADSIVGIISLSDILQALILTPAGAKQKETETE

[1] = compound: C/C(=N\NC(=O)C1=CC(=CC=C1)S(=O)(=O)N2CCOCC2)/C3=C(C=CC(=C3)Cl)O
Summary of the method: as §1

[2] = compound: C1=CC(=C(C=C1Cl)C2=NC3=NC=CN=C3C(=N2)NC4=CC=NC=C4)F
Summary of the method: as §1

[3] = compound: C1=CC(=CC=C1C2=NC3=C(N2)C=C(C=C3)C(=O)N)OC4=CC=C(C=C4)Cl
Summary of the method: as §1

[4] = compound: C1=CC2=C(C=CC(=C2)/C=C\3/C(=O)NC(=NCC4=CC=CS4)S3)N=C1
Summary of the method: as §1

[5] = compound: C1=CC2=NC=CN=C2C=C1/C=C/3\C(=O)NC(=O)S3
Summary of the method: as §1

[6] = compound: C1=CC=C(C=C1)C2=NC(=C(N2)C3=CC=NC=C3)C4=CC(=C(C=C4)Cl)O
Summary of the method: as §1

[7] = compound: C1=CC=C2C(=C1)C3=NNC4=CC=CC(=C43)C2=O
Summary of the method: as §1

[8] = compound: C1CCN(C1)C(=O)NC2=CC=CC(=C2)NC3=NC=C(C(=N3)NCCC4=CN=CN4)Br
Summary of the method: as §1

[9] = compound: C1CN(CCC1(CC2=CC=C(C=C2)Cl)N)C3=NC=NC4=C3C=CN4
Summary of the method: as §1

IRAK-1-4 Inhibitor I = compound: C1COCCN1CCN2C3=CC=CC=C3N=C2NC(=O)C4=CC(=CC=C4)[N+](=O)[O-] [IRAK-1-4 Inhibitor I]
Summary of the method: as §1

ibrutinib = compound: C=CC(=O)N1CCC[C@@H](n2nc(-c3ccc(Oc4ccccc4)cc3)c3c(N)ncnc32)C1 [ibrutinib]
Summary of the method: as §1

[10] = compound: CC(=O)c1cnc2ccc(-c3cc(Cl)c(O)c(Cl)c3)nc2c1N[C@H]1CC[C@H](CN(C)C)CC1
Summary of the method: as §1

ralimetinib = compound: CC(C)(C)Cn1c(N)nc2ccc(-c3[nH]c(C(C)(C)C)nc3-c3ccc(F)cc3)nc21 [ralimetinib]
Summary of the method: as §1

[11] = compound: CC(C)(O)CC(=O)NCCn1ccc2ncnc(Nc3ccc(Oc4cccc(C(F)(F)F)c4)c(Cl)c3)c21
Summary of the method: as §1

[12] = compound: CC(C)C1=C2N=C(C=C(N2N=C1)NCC3=CC=CC=C3)NCCCCCCN
Summary of the method: as §1

[13] = compound: CC(C)C[C@@H](C=O)NC(=O)[C@H](CC(C)C)NC(=O)[C@H](CC(C)C)NC(=O)OCc1ccccc1
Summary of the method: as §1

pinometostat = compound: CC(C)N(C[C@H]1O[C@@H](n2cnc3c(N)ncnc32)[C@H](O)[C@@H]1O)[C@H]1C[C@@H](CCc2nc3cc(C(C)(C)C)ccc3[nH]2)C1 [pinometostat]
Summary of the method: as §1

[14] = compound: CC1=C(C(CC(=O)N1)C2=CC=C(C=C2)C(F)(F)F)C(=O)NC3=C(C=C4C(=C3)C=NN4)F
Summary of the method: as §1

[15] = compound: CC1=C(C2=C(C=C1)C(=O)C3=CC=CC=C3N2CCCN)C
Summary of the method: as §1

Measured: log2 fold change

PROS1 (UniProt P07225)
inactive: erlotinib -0.014 | [1] -0.062 | [2] -0.001 | [3] 0.047 | [4] -0.01 | [5] 0.021 | [6] 0.014 | [7] -0.061 | [8] 0 | [9] 0.038 | IRAK-1-4 Inhibitor I -0.011 | ibrutinib 0.042 | [10] -0.022 | ralimetinib 0.037 | [11] 0.04 | [12] 0.039 | [13] -0.038 | pinometostat 0.038 | [14] 0.051 | [15] -0.108

PPP2R2A isoform 2 (UniProt P63151)
inactive: erlotinib -0.007 | [1] 0.027 | [2] 0.06 | [3] -0.004 | [4] 0.041 | [5] -0.01 | [6] -0.047 | [7] -0.016 | [8] -0.012 | [9] 0.063 | IRAK-1-4 Inhibitor I 0.011 | ibrutinib 0.011 | [10] -0.041 | ralimetinib -0.093 | [11] -0.015 | [12] 0.052 | [13] -0.055 | pinometostat -0.037 | [14] -0.028 | [15] -0.012

PRKCSH (UniProt P14314)
inactive: erlotinib -0.033 | [1] -0.009 | [2] 0.071 | [3] -0.027 | [4] -0.06 | [5] 0.008 | [6] 0.012 | [7] 0.053 | [8] -0.054 | [9] 0.011 | IRAK-1-4 Inhibitor I 0.02 | ibrutinib -0.019 | [10] -0.008 | ralimetinib 0.022 | [11] 0.053 | [12] -0.017 | [13] -0.057 | pinometostat -0.041 | [14] 0.016 | [15] -0.022

PRPSAP1 isoform 2 (UniProt Q14558)
inactive: erlotinib -0.051 | [1] -0.04 | [2] -0.045 | [3] 0.01 | [4] -0.03 | [5] -0.001 | [6] 0.009 | [7] 0.003 | [8] 0.005 | [9] 0.017 | IRAK-1-4 Inhibitor I 0.02 | ibrutinib 0.018 | [10] 0.031 | ralimetinib -0.018 | [11] 0.04 | [12] 0.082 | [13] -0.025 | pinometostat -0.046 | [14] 0.01 | [15] -0.017

PPP4C (UniProt P60510)
inactive: erlotinib 0.048 | [1] -0.027 | [2] 0.006 | [3] 0.014 | [4] 0.022 | [5] 0.031 | [6] 0.059 | [7] 0.007 | [8] -0.02 | [9] 0.047 | IRAK-1-4 Inhibitor I 0.057 | ibrutinib 0.023 | [10] -0.005 | ralimetinib -0.044 | [11] 0.007 | [12] 0.039 | [13] -0.029 | pinometostat 0.027 | [14] 0.078 | [15] -0.006

PPP1CC isoform 2 (UniProt P36873)
inactive: erlotinib 0.003 | [1] 0.033 | [2] -0.003 | [3] -0.002 | [4] 0.004 | [5] 0.031 | [6] 0.022 | [7] -0.046 | [8] -0.016 | [9] -0.034 | IRAK-1-4 Inhibitor I 0.023 | ibrutinib 0.033 | [10] 0.006 | ralimetinib -0.024 | [11] 0.014 | [12] 0.03 | [13] -0.025 | pinometostat -0.009 | [14] 0.18 | [15] 0.009

PRKCI (UniProt P41743)
inactive: erlotinib -0.001 | [1] 0.077 | [2] -0.095 | [3] 0.079 | [4] -0.003 | [5] 0.056 | [6] -0.002 | [7] 0.003 | [8] -0.007 | [9] -0.073 | IRAK-1-4 Inhibitor I 0.009 | ibrutinib 0.009 | [10] -0.091 | ralimetinib -0.006 | [11] 0.004 | [12] -0.045 | [13] 0.035 | pinometostat 0.034 | [14] 0.026 | [15] 0.001

PPP1R11 (UniProt O60927)
inactive: erlotinib -0.019 | [1] -0.12 | [2] -0.047 | [3] 0.02 | [4] -0.089 | [5] 0.064 | [6] -0.119 | [7] -0.081 | [8] 0.014 | [9] 0.102 | IRAK-1-4 Inhibitor I 0.01 | ibrutinib 0.017 | [10] 0.012 | ralimetinib -0.075 | [11] -0.027 | [12] 0.134 | [13] 0.035 | pinometostat -0.066 | [14] 0.113 | [15] -0.106

PRPF4 (UniProt O43172)
inactive: erlotinib 0.012 | [1] 0.039 | [2] 0.014 | [3] 0.01 | [4] 0.008 | [5] 0.008 | [6] -0.014 | [7] 0.04 | [8] 0.021 | [9] 0.032 | IRAK-1-4 Inhibitor I 0.029 | ibrutinib 0.008 | [10] -0.092 | ralimetinib 0.005 | [11] -0.048 | [12] -0.114 | [13] 0.058 | pinometostat -0.005 | [14] 0 | [15] -0.117

PPP3CB isoform 4 (UniProt P16298)
inactive: erlotinib 0.034 | [1] -0.03 | [2] 0.024 | [3] 0.013 | [4] 0.069 | [5] 0.05 | [6] -0.015 | [7] 0.034 | [8] 0.002 | [9] -0.008 | IRAK-1-4 Inhibitor I 0.004 | ibrutinib -0.047 | [10] -0.05 | ralimetinib 0.019 | [11] -0.054 | [12] -0.084 | [13] 0.014 | pinometostat 0.028 | [14] 0.046 | [15] -0.018

PPP4R1 (UniProt Q8TF05)
inactive: erlotinib -0.007 | [1] -0.019 | [2] 0.062 | [3] 0.016 | [4] 0.039 | [5] 0.064 | [6] 0.062 | [7] 0.007 | [8] -0.001 | [9] 0.01 | IRAK-1-4 Inhibitor I -0.001 | ibrutinib -0.002 | [10] 0.107 | ralimetinib -0.007 | [11] -0.085 | [12] -0.06 | [13] -0.046 | pinometostat 0.018 | [14] -0.012 | [15] 0.004

PRMT6 (UniProt Q96LA8)
inactive: erlotinib 0.023 | [1] 0.041 | [2] 0.121 | [3] 0.023 | [4] 0.066 | [5] 0.006 | [6] 0.125 | [7] 0.005 | [8] 0.04 | [9] 0.005 | IRAK-1-4 Inhibitor I -0.07 | ibrutinib -0.058 | [10] 0.034 | ralimetinib 0.015 | [11] -0.057 | [12] -0.014 | [13] 0.022 | pinometostat -0.185 | [14] -0.042 | [15] 0.157

PRCC (UniProt Q92733)
inactive: erlotinib 0.01 | [1] -0.115 | [2] -0.012 | [3] 0.01 | [4] 0.044 | [5] 0.047 | [6] -0.047 | [7] -0.085 | [8] -0.005 | [9] 0.078 | IRAK-1-4 Inhibitor I 0.049 | ibrutinib 0.04 | [10] -0.07 | ralimetinib -0.029 | [11] 0.027 | [12] 0.01 | [13] 0.025 | pinometostat -0.008 | [14] 0.011 | [15] -0.057

PPWD1 (UniProt Q96BP3)
inactive: erlotinib 0.031 | [1] 0.032 | [2] 0.049 | [3] 0.002 | [4] 0.037 | [5] 0.038 | [6] 0.013 | [7] -0.026 | [8] -0.006 | [9] 0.03 | IRAK-1-4 Inhibitor I 0.012 | ibrutinib 0.02 | [10] 0.007 | ralimetinib -0.012 | [11] -0.037 | [12] 0.005 | [13] -0.028 | pinometostat -0.049 | [14] -0.004 | [15] 0.149

PRKAG2 (UniProt Q9UGJ0)
inactive: erlotinib -0.009 | [1] 0.045 | [2] 0.033 | [3] 0.006 | [4] -0.023 | [5] 0.021 | [6] 0.019 | [7] 0.051 | [8] 0.02 | [9] 0.016 | IRAK-1-4 Inhibitor I 0.003 | ibrutinib -0.052 | [10] -0.204 | ralimetinib -0.052 | [11] -0.016 | [12] -0.053 | [13] -0.008 | pinometostat -0.001 | [14] 0.03 | [15] -0.038

From the supplement of paper PMC10849652
